From paper doi:10.1101/2024.03.15.585069

Chains of the proteins cited; added tags and fusions are not shown. Lines headed by an entry give the natural chain unless they say otherwise; changes in a name come on top.
UniProt F4I7L1: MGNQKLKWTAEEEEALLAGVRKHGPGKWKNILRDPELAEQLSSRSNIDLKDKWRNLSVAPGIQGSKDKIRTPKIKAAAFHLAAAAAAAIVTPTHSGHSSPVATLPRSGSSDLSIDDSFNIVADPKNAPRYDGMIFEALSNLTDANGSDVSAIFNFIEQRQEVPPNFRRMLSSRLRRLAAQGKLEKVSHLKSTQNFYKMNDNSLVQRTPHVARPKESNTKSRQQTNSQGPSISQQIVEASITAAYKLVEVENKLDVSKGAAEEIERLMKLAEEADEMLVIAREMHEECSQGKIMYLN
UniProt F4IEY4: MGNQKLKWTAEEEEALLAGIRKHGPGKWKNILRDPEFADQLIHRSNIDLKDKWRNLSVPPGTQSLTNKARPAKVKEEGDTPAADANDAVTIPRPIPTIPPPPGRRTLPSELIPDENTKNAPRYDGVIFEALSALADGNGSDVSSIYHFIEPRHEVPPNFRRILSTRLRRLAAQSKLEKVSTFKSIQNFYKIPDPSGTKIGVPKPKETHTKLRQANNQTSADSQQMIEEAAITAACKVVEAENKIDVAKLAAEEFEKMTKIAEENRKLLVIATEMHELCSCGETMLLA
UniProt O22467: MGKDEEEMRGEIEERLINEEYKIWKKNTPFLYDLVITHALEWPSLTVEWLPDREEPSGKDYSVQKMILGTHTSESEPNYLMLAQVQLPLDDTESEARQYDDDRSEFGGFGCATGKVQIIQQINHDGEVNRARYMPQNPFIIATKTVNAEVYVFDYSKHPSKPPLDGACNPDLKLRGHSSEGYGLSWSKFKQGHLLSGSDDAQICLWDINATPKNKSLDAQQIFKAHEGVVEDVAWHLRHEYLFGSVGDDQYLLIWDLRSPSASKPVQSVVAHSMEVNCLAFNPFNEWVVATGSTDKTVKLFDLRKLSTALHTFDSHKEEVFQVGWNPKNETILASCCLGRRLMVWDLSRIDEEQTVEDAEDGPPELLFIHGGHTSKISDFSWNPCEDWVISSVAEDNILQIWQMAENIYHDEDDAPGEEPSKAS
UniProt Q8GUI6: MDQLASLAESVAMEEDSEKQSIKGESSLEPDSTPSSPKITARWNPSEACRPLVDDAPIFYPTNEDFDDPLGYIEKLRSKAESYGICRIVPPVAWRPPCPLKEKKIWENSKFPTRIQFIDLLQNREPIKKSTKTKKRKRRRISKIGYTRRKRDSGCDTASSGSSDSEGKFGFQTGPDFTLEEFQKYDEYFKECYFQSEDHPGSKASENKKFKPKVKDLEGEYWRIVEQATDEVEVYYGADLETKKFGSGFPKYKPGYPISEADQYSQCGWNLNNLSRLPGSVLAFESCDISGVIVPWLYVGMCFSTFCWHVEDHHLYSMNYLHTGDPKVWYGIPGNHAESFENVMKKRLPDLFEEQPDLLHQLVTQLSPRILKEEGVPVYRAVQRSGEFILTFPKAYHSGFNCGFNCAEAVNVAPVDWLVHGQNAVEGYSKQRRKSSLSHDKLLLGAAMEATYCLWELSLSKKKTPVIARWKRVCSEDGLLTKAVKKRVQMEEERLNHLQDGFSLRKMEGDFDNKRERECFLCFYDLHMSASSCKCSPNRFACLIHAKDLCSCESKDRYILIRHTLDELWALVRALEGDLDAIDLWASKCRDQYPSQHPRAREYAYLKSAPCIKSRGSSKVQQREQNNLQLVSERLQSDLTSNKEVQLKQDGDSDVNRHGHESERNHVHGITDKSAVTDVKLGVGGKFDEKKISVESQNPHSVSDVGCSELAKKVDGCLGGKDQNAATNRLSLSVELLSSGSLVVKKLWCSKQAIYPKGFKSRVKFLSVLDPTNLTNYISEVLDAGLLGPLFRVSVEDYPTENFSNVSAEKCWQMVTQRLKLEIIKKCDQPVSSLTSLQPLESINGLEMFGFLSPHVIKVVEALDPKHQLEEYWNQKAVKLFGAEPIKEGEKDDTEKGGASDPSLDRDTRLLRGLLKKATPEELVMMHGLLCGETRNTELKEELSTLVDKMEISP

Legend:
[1] = biological target: T1, GSRhino-TAP-tagged CP2 (CUPULIFORMIS2) (Arabidopsis thaliana) (UniProt P0DO23); test: affinity purification with mass spectrometry
T1 sequence: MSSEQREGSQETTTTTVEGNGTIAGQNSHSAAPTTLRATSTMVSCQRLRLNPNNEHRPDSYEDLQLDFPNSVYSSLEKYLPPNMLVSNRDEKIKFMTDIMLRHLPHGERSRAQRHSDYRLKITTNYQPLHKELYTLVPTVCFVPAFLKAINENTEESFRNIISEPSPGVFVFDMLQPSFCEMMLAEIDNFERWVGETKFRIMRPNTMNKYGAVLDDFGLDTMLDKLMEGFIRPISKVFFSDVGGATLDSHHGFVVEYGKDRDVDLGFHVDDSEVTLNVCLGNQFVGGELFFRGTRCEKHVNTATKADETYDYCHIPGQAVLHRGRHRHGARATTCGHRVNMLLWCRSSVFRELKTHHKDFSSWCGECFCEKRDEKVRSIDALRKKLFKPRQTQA

[2] = biological target: T2, GSRhino-TAP-tagged ICU11 (INCURVATA11) (Arabidopsis thaliana) (UniProt Q3ED68); test: affinity purification with mass spectrometry
T2 sequence: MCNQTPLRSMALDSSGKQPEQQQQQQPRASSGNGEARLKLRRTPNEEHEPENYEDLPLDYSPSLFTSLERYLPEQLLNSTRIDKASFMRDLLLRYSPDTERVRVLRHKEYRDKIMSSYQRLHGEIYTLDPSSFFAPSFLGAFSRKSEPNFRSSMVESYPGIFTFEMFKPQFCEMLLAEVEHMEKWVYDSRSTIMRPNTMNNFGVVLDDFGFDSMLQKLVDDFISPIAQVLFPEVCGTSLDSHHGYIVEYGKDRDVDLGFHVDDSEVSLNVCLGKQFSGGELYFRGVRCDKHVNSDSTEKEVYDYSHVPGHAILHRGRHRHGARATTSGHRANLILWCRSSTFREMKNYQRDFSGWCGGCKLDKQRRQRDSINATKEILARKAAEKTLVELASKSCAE

| Substance | binding [1] | binding [2] |
| --- | --- | --- |
| TRB4 (from UniProt F4I7L1) | binds | – |
| TRB5 (from UniProt F4IEY4) | binds | – |
| DRMY PARALOG 1 (DP1) | binds | no binding |
| DEVELOPMENT RELATED MYB-LIKE1 (DRMY1) | binds | no binding |
| MULTICOPY SUPRESSOR OF IRA 1 (MSI1) (from UniProt O22467 1-424) | – | binds |
| JMJ14 (from UniProt Q8GUI6 1-954) | no binding | – |

Results are given in words; binding and its absence hold for the method and conditions named. In cells and extracts the contact can be indirect. A yes stands for co-enrichment or nearness to the bait. Other partners may have been found. No binding means not detected with the bait. Sequences can lack the tags named with a protein.
